Test results published in patent US20110021746A1 (published 2011).
These are yes or no findings as the source states them, for the method shown. Some results given as binding are weak or reduced against the parent protein; the word gives no strength.

Chains of the proteins cited; added tags and fusions are not shown. Residues count along the entry.
UniProt P30530, residues 26-449: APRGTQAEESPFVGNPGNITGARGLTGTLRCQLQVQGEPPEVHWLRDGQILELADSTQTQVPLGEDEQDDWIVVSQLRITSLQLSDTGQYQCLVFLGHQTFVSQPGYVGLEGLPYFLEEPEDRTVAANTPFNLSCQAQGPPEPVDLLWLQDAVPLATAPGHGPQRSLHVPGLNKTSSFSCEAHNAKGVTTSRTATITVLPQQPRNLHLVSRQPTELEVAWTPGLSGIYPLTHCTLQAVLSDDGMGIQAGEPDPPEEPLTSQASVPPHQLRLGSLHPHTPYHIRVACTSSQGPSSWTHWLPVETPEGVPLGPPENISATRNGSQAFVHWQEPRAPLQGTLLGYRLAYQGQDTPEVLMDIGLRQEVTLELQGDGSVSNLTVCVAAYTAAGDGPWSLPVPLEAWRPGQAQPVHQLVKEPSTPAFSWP

Target: Axl (UniProt P30530)
Assay: phage display selection

Row | Binder | binding
1 | SEQ ID NO 403 (designed binder) NVSPPRRARVTDATETTITISWRTKTETITGFQVDAVPANGQTPIQRTIATGARVYTITGLQPGTDYKIYLYTLTGYGVGTYSSSPVVIDAST | binds
2 | SEQ ID NO 404 (designed binder) NVSPPRRARVTDATETTITISWRTKTETITGFQVDAVPANGQTPIQRTINSNAHIYTITGLQPGTDYKIYLYTLNGYGVGTVTSSPVVIDAST | binds
3 | SEQ ID NO 405 (designed binder) NVSPPRRARVTDATETTITISWRTKTETITGFQVDAVPANGQTPIQRTINRNAHAYTITGLQPGTDYKIYLYTLTGYGVGTFASSPVVIDAST | binds
4 | SEQ ID NO 406 (designed binder) NVSPPRRARVTDATETTITISWRTKTETITGFQVDAVPANGQTPIQRTINSGAHSYTITGLQPGTDYKIYLYTLTMYGVGEVRSSPVVIDAST | binds
5 | SEQ ID NO 407 (designed binder) NVSPPRRARVTDATETTITIRWTLAGSQFIGFQVDAVPANGQTPIQRTIDGSVHVYTITGLQPGTDYKIYLYTLSKRLETSSPVVIDAST | binds
6 | SEQ ID NO 408 (designed binder) NVSPPRRARVTDATETTITISWRTKTETITGFQVDAVPANGQTPIQRTIATAKRVYTITGLQPGTDYKIYLYTLTGYGVGEYRSSPVVIDAST | binds
7 | SEQ ID NO 409 (designed binder) NVSPPRRARVTDATETTITISWRTKTETITGFQVDAVPANGQTPIQRTINSAAHAYTITGLQPGTDYKIYLYTLNGYGVGTLASSPVVIDAST | binds
8 | SEQ ID NO 410 (designed binder) NVSPPRRARVTDATETTITISWRTKTETITGFQVDAVPANGQTPIQRTINAGARTYTITGLQPGTDYKIYLYTLTGYGVGTFGSSPVVIDAST | binds
9 | SEQ ID NO 411 (designed binder) NVSPPRRARVTDATETTITISWRTKTETITGFQVDAVPANGQTPIQRTIATGARVYTITGLQPGTDYKIYLYTLTGYGVGASASSPVVIDAST | binds
10 | SEQ ID NO 412 (designed binder) NVSPPRRARVTDATETTITISWRTKTETITGFQVDAVPANGQTPIQRTIATAKRVYTITGLQPGTDYKIYLYTLTGYGVGEVRSSPVVIDAST | binds
11 | SEQ ID NO 413 (designed binder) NVSPPRRARVTDATETTITISWRTKTETITGFQVDAVPANGQTPIQRTIAAAVHTYTITGLQPGTDYKIYLYTLTGYGVGQVGSSPVVIDAST | binds
12 | SEQ ID NO 414 (designed binder) NVSPPRRARVTDATETTITISWLTKTETITGFQVDAVPANGQTPIQRTIHAGAHIYTITGLQPGTDYKIYLYTLNGFGNGEFTSSPVVIDAST | binds
13 | SEQ ID NO 415 (designed binder) NVSPPRRARVTDATETTITIRWKIPGFQVDAVPANGQTPIQRTINRGITTYTITGLQPGTDYKIYLYTLNDNARSSPVVIDAST | binds
14 | SEQ ID NO 416 (designed binder) NVSPPRRARVTDATETTITIRWTLTGFQVDAVPANGQTPIQRTIKRSANVYTITGLQPGTDYKIYLYTLNDNARSSPVVIDAST | binds
15 | SEQ ID NO 417 (designed binder) NVSPPRRARVTDATETTITIRWKAPQSDFQVDAVPANGQTPIQRTIKRSATIYTITGLQPGTDYKIYLYTLNDNARSSPVVIDAST | binds
16 | SEQ ID NO 418 (designed binder) NVSPPRRARVTDATETTITIRWQALGFQVDAVPANGQTPIQRTIARNAPAYTITGLQPGTDYKIYLYTLNDNARSSPVVIDAST | binds
17 | SEQ ID NO 419 (designed binder) NVSPPRRARVTDATETTITIRWRVLGFQVDAVPANGQTPIQRTIHRGVNVYTITGLQPGTDYKIYLYTLNDNARSSPVVIDAST | binds
18 | SEQ ID NO 420 (designed binder) NVSPPRRARVTDATETTITISWRTKTETITGFQVDAVPANGQTPIQRTINSGARSYTITGLQPGTDYKIYLYTLTGYGVGQDASSPVVIDAST | binds
19 | SEQ ID NO 421 (designed binder) NVSPPRRARVTDATETTITITWTLPHFQVDAVPANGQTPIQRTIDRGTRAYTITGLQPGTDYKIYLYTLNDNARSSPVVIDAST | binds
20 | SEQ ID NO 422 (designed binder) NVSPPRRARVTDATETTITITWPLGFQVDAVPANGQTPIQRTIKRGVSSYTITGLQPGTDYKIYLYTLNDNARSSPVVIDAST | binds
21 | SEQ ID NO 423 (designed binder) NVSPPRRARVTDATETTITIRWRGPRFQVDAVPANGQTPIQRTIDAGTRGYTITGLQPGTDYKIYLYTLNDNARSSPVVIDAST | binds
22 | SEQ ID NO 424 (designed binder) NVSPPRRARVTDATETTITIRWAIPGFQVDAVPANGQTPIQRTITRGARAYTITGLQPGTDYKIYLYTLNDNARSSPVVIDAST | binds
23 | SEQ ID NO 426 (designed binder) NVSPPRRARVTDATETTITIRWKVPGFQVDAVPANGQTPIQRTITRGTRVYTITGLQPGTDYKIYLYTLNDNARSSPVVIDAST | binds
24 | SEQ ID NO 427 (designed binder) NVSPPRRARVTDATETTITISWKKPKHNGGTGVTSFQVDAVPANGQTPIQRTIKPDVRSYTITGLQPGTDYKIYLYTLNKRRNSSSPVVIDAST | binds
25 | SEQ ID NO 428 (designed binder) NVSPPRRARVTDATETTITIRWAAPGFQVDAVPANGQTPIQRTIHRTAPSYTITGLQPGTDYKIYLYTLNDNARSSPVVIDAST | binds
26 | SEQ ID NO 429 (designed binder) NVSPPRRARVTDATETTITIRWPVNGFQVDAVPANGQTPIQRTINRGVRTYTITGLQPGTDYKIYLYTLNDNARSSPVVIDAST | binds
27 | SEQ ID NO 430 (designed binder) NVSPPRRARVTDATETTITIRWGVLGFQVDAVPANGQTPIQRTINRSVRAYTITGLQPGTDYKIYLYTLNDNARSSPVVIDAST | binds
28 | SEQ ID NO 431 (designed binder) NVSPPRRARVTDATETTITIRWSQIDRFQVDAVPANGQTPIQRTIKSDVHIYTITGLQPGTDYKIYLYTLNDNARSSPVVIDAST | binds
29 | SEQ ID NO 432 (designed binder) NVSPPRRARVTDATETTITIRWASQINGFQVDAVPANGQTPIQRTIKRTIHVYTITGLQPGTDYKIYLYTLNDNARSSPVVIDAST | binds
